For experiment [1], the target named is WWP2 (WW domain-containing E3 ubiquitin protein ligase 2) (human (endogenous in HuH-7)) (UniProt O00308). The experiment is described as follows: co-IP; endogenous proteins of HuH-7 cells; NP-40 lysis buffer; target-specific primary antibody (1:100) or control IgG overnight at 4 °C, Protein A/G magnetic beads, three washes with NP-40 buffer; immunoblot. Background: A western blot detects proteins with antibodies after separation by electrophoresis.

Sequences of proteins named here, by UniProt entry; tags and fusion partners are left off.
UniProt O00308: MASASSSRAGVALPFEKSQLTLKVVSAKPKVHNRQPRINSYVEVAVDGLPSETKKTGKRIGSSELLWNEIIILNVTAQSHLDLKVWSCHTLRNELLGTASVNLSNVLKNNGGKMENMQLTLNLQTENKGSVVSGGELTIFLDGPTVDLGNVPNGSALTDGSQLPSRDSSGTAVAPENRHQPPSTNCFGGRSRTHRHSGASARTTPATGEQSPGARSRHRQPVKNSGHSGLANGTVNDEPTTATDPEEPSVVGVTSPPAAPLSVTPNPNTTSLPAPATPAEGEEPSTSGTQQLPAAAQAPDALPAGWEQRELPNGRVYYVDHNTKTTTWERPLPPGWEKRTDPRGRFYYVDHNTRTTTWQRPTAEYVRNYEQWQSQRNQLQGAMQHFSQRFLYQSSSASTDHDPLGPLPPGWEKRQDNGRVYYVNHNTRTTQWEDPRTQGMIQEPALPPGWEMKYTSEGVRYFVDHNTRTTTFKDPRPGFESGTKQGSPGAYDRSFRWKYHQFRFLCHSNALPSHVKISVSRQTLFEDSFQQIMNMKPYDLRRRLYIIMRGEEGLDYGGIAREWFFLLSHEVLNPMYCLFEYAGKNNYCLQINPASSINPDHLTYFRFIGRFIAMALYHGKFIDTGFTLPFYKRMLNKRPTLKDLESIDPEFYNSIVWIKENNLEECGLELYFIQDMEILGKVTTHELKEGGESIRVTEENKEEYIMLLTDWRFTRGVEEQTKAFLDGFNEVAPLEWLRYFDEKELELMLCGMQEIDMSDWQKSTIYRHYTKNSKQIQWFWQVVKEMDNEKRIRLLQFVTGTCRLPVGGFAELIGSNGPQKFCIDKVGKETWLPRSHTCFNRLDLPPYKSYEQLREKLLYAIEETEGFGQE
UniProt P38936: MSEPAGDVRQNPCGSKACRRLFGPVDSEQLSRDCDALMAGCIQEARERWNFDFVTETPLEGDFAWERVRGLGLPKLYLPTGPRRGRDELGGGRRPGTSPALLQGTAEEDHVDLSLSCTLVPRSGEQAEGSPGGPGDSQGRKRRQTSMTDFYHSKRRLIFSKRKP

The target is the same in experiment [2]. Described as above. The source holds these as a separate data set.

Among the data in paper PMC12830804 are binding values, retold here.

Like-named read-outs stand apart in the source and are kept apart here. No constants are given. Whether binding was seen depends on the method and setting. In cells and extracts the contact can be indirect. Some results given as binding are weak or reduced against the parent protein; the word gives no strength.

Consider p21 (from UniProt P38936 1-164), for which the binding result in experiment [1] is given as “binds”.

B1: CMTM6 (protein, UniProt Q9NX76 1-183)
chain: MENGAVYSPTTEEDPGPARGPRSGLAAYFFMGRLPLLRRVLKGLQLLLSLLAFICEEVVSQCTLCGGLYFFEFVSCSAFLLSLLILIVYCTPFYERVDTTKVKSSDFYITLGTGCVFLLASIIFVSTHDRTSAEIAAIVFGFIASFMFLLDFITMLYEKRQESQLRKPENTTRAEALTEPLNA
Take B1: the binding entry in experiment [2] is reported as “binds”.
